Results reported in the supplement of paper PMC12889115.
The list shows a part of the results. Values are raw readings; no control value is given beside them.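 Primary screen: polymyxin B was added at a level permeabilizing Salmonella outer membranes while sparing inner membranes. DMSO wells, both with and without polymyxin B, established maximum growth. Plate-to-plate variation meant each plate was ranked on its own, and the lowest-OD600 compounds were selected as hits.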

Tested on: Salmonella enterica serovar Typhimurium SL1344
Experiment: bacterial growth OD600 after 18 h with compound and polymyxin B; higher = more bacterial growth (less inhibition)
Settings: 50 µM, Mueller-Hinton broth

Row | SMILES | bacterial growth OD600 (polymyxin B 1 µg/mL) | bacterial growth OD600 (polymyxin B 0.75 µg/mL)
1 | COc1ccc(OC2CCN(C3CCCC3)CC2)c(C(=O)NCCOC(C)C)c1 | 0.964 | –
2 | O=C(CCc1ccccn1)N1CC[C@@H](N2CCN(c3ccccc3F)CC2)[C@H](O)C1 | 0.922 | –
3 | COC(=O)C1CCN(C(=O)c2cn(CCC3CCCCC3)nn2)CC1 | 0.825 | –
4 | CC(C)CCC1(C2CCN(C(=O)C3=CCCC3)CC2)NC(=O)N(Cc2ccccn2)C1=O (stereo unspecified) | – | 0.835
5 | OC(CCc1ccccc1)c1ccc2c(c1)CN(Cc1cccn1-c1ccccn1)CCO2 (stereo unspecified) | – | 0.594
6 | O=C(NC1CC(=O)N(Cc2ccccc2C(F)(F)F)C1)c1ccsc1 (stereo unspecified) | 0.921 | –
7 | COc1ccc(C(=O)NCC(C)(C)CO)cc1OC1CCN(C(C)C)CC1 | – | 0.974
8 | O=C(CCC1CCN(S(=O)(=O)c2ccc(Cl)cc2)CC1)NCc1ccc(F)cc1 | 1.1 | –
9 | CCOc1ccc2nc(N3CCCN(Cc4cccc5nccnc45)CC3)nc(C)c2c1 | – | 1.03
10 | Cc1ccccc1-c1cnnc(N(C)Cc2nc3cccc(C)c3[nH]2)n1 | – | 0.681
11 | Cc1nc2ccccc2n1Cc1cc(C(=O)N2CCCN(C3CCCC3)CC2)n[nH]1 | 0.94 | –
12 | COc1cc(=O)n2c(c1C(=O)NCc1ccc3c(c1)OCO3)CCN(C(=O)CC(C)(C)C)CC2 | – | 0.873
13 | O=C(C1CC1)N1CCCC(CCc2cccc(F)c2)C1 (stereo unspecified) | – | 0.469
14 | Cc1cccnc1CN1CCN(C(=O)Cn2nnnc2CN2CCCC2)CC1 | – | 0.834
15 | CC(=O)Nc1cc(C(=O)N2CCC(c3ccc(F)cc3)C2)c2c(c1)nc(C)n2Cc1ccccc1 (stereo unspecified) | – | 0.931
16 | O=C(NCCN1CCCCC1=O)c1ccc2nc(Cc3ccccc3F)oc2c1 | – | 0.839

Row | SMILES | bacterial growth OD600 (polymyxin B 1 µg/mL) | bacterial growth OD600 (polymyxin B 0.75 µg/mL)
17 | O=C(CCC1CCN(CCCn2cccn2)CC1)N1CCN(c2ccccc2)CC1 | 0.942 | –
18 | CC(C)(CO)NC(=O)CC(c1ccccc1)c1cccc(Cl)c1 (stereo unspecified) | – | 0.452
19 | CC(C)N(C)C(=O)C1CCCN(C2CCN(c3nc4ccccc4o3)CC2)C1 (stereo unspecified) | – | 0.884
20 | C=C(C)CNCC1(O)CCCN(Cc2ccc(F)c(F)c2)C1=O (stereo unspecified) | 1.1 | –
21 | CCOC(c1ccccc1)c1ccc2c(c1)CN(C1CCC1)CCO2 (stereo unspecified) | – | 0.718
22 | Cc1cccc(-c2ccc(NC(=O)C3CCN(Cc4nccn4C)CC3)cc2)c1 | – | 0.587
23 | O=C(Nc1cccc(-n2cccn2)c1)C1CCCN1C(=O)C1CC1 (stereo unspecified) | 0.941 | –
24 | C=CCNC(=O)C1CCCN(c2nc(-c3ccccc3)nc3c2CCC3)C1 (stereo unspecified) | – | 0.575
25 | CCOC(=O)C1(CCOC)CCCN(Cc2c(C)cc(C)cc2-n2cccn2)C1 (stereo unspecified) | – | 0.837
26 | Cc1cc(CN(C)C(=O)C2(N3CCCCC3)Cc3ccccc3C2)n[nH]1 | – | 0.004
27 | Cc1ccccc1C1(CC(=O)N2CCN(C(C)C)CC2)CC(=O)N(Cc2cccnc2)C1=O (stereo unspecified) | – | 0.816
28 | C=C(C)CN(CC)C(=O)c1cc(Cn2c(C)nc3ccccc32)[nH]n1 | 0.924 | –
29 | CCNC(=O)c1cn(CC(C)C)cc(C(=O)NCc2ccccc2OC)c1=O | – | 0.773
30 | CC(=O)c1cccc(OCc2cc(C(=O)NCC3CCCCO3)n[nH]2)c1 (stereo unspecified) | 0.989 | –
31 | CCOC(=O)C1(CCOc2ccccc2)CCCN(C(=O)c2scc3c2OCCO3)C1 (stereo unspecified) | 0.021 | –

Copied from the list.
Value for CCOC(=O)C1(CCOc2ccccc2)CCCN(C(=O)c2scc3c2OCCO3)C1 (stereo unspecified) under bacterial growth OD600 (polymyxin B 1 µg/mL): 0.021
Value for O=C(NCCN1CCCCC1=O)c1ccc2nc(Cc3ccccc3F)oc2c1 under bacterial growth OD600 (polymyxin B 0.75 µg/mL): 0.839
